Consider two molecules from publication PMC3003240.

No constants are given. Whether binding was seen depends on the method and setting. Binding seen in cells or lysates may run through a third protein. Some results given as binding are weak or reduced against the parent protein; the word gives no strength.

The target of assay [1] is T1, Dishevelled-2 (mouse (endogenous in F9)) (UniProt Q60838).
T1 sequence: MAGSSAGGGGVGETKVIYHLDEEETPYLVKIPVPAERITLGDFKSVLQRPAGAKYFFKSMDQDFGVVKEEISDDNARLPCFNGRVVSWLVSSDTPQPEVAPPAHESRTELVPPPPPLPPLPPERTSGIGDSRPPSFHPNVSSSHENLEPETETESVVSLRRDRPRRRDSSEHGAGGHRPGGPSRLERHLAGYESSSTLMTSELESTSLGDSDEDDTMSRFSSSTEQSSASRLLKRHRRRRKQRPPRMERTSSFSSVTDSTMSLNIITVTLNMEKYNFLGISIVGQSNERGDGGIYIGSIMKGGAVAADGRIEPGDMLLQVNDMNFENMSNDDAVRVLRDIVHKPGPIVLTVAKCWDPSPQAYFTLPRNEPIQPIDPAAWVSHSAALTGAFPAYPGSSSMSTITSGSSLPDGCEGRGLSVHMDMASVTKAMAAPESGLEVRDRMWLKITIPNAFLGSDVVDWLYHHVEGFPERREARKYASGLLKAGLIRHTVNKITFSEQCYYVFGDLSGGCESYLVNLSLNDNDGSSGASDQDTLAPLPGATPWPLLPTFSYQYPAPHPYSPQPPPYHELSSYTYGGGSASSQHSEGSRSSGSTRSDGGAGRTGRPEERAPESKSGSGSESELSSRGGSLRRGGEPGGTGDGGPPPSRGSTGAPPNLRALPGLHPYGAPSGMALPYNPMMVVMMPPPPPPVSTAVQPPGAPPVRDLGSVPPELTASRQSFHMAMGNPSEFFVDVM
Put plainly: co-IP; endogenous Dvl2 or Dvl3 immunoprecipitated from whole-cell lysates of untreated or Wnt5a-treated F9 cells with isoform-specific antibodies on protein A/G agarose at 4°C; washed 3 times with 20 mM Tris pH 8.0, 150 mM NaCl, 5 mM EDTA, 1% Triton X-100; IP, total and post-IP fractions immunoblotted for each Dvl isoform.

Assay [2] addresses T2, Dishevelled-3 (mouse (endogenous in F9)) (UniProt Q61062).
T2 sequence: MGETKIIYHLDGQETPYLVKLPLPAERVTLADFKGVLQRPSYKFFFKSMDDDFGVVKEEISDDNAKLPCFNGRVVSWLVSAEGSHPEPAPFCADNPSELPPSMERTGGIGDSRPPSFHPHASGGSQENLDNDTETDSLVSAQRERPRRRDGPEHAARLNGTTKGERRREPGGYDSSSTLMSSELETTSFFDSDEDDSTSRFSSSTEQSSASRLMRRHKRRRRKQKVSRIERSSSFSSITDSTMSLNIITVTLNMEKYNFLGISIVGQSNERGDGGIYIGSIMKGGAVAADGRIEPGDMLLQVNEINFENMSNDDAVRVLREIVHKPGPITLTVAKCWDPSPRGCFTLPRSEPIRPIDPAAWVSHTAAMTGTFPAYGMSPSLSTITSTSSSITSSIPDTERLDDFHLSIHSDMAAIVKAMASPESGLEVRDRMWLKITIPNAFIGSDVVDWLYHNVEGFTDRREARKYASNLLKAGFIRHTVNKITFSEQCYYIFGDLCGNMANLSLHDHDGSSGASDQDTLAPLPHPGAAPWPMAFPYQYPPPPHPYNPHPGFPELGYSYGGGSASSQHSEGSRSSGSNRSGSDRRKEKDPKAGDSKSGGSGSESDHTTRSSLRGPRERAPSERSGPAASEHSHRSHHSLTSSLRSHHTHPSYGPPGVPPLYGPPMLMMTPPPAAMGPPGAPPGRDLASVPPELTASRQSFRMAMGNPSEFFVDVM
Described as above.

B1: Dishevelled-3 (protein, UniProt Q61062 1-716)
chain: MGETKIIYHLDGQETPYLVKLPLPAERVTLADFKGVLQRPSYKFFFKSMDDDFGVVKEEISDDNAKLPCFNGRVVSWLVSAEGSHPEPAPFCADNPSELPPSMERTGGIGDSRPPSFHPHASGGSQENLDNDTETDSLVSAQRERPRRRDGPEHAARLNGTTKGERRREPGGYDSSSTLMSSELETTSFFDSDEDDSTSRFSSSTEQSSASRLMRRHKRRRRKQKVSRIERSSSFSSITDSTMSLNIITVTLNMEKYNFLGISIVGQSNERGDGGIYIGSIMKGGAVAADGRIEPGDMLLQVNEINFENMSNDDAVRVLREIVHKPGPITLTVAKCWDPSPRGCFTLPRSEPIRPIDPAAWVSHTAAMTGTFPAYGMSPSLSTITSTSSSITSSIPDTERLDDFHLSIHSDMAAIVKAMASPESGLEVRDRMWLKITIPNAFIGSDVVDWLYHNVEGFTDRREARKYASNLLKAGFIRHTVNKITFSEQCYYIFGDLCGNMANLSLHDHDGSSGASDQDTLAPLPHPGAAPWPMAFPYQYPPPPHPYNPHPGFPELGYSYGGGSASSQHSEGSRSSGSNRSGSDRRKEKDPKAGDSKSGGSGSESDHTTRSSLRGPRERAPSERSGPAASEHSHRSHHSLTSSLRSHHTHPSYGPPGVPPLYGPPMLMMTPPPAAMGPPGAPPGRDLASVPPELTASRQSFRMAMGNPSEFFVDVM
In the case of B1, in assay [1], the binding result was “binds”.

B2: Dishevelled-2 (protein, UniProt Q60838 1-736)
chain: MAGSSAGGGGVGETKVIYHLDEEETPYLVKIPVPAERITLGDFKSVLQRPAGAKYFFKSMDQDFGVVKEEISDDNARLPCFNGRVVSWLVSSDTPQPEVAPPAHESRTELVPPPPPLPPLPPERTSGIGDSRPPSFHPNVSSSHENLEPETETESVVSLRRDRPRRRDSSEHGAGGHRPGGPSRLERHLAGYESSSTLMTSELESTSLGDSDEDDTMSRFSSSTEQSSASRLLKRHRRRRKQRPPRMERTSSFSSVTDSTMSLNIITVTLNMEKYNFLGISIVGQSNERGDGGIYIGSIMKGGAVAADGRIEPGDMLLQVNDMNFENMSNDDAVRVLRDIVHKPGPIVLTVAKCWDPSPQAYFTLPRNEPIQPIDPAAWVSHSAALTGAFPAYPGSSSMSTITSGSSLPDGCEGRGLSVHMDMASVTKAMAAPESGLEVRDRMWLKITIPNAFLGSDVVDWLYHHVEGFPERREARKYASGLLKAGLIRHTVNKITFSEQCYYVFGDLSGGCESYLVNLSLNDNDGSSGASDQDTLAPLPGATPWPLLPTFSYQYPAPHPYSPQPPPYHELSSYTYGGGSASSQHSEGSRSSGSTRSDGGAGRTGRPEERAPESKSGSGSESELSSRGGSLRRGGEPGGTGDGGPPPSRGSTGAPPNLRALPGLHPYGAPSGMALPYNPMMVVMMPPPPPPVSTAVQPPGAPPVRDLGSVPPELTASRQSFHMAMGNPSEFFVDVM
For B2, in assay [2], the binding result is “binds”.
